{
  "source": "paper PMC12898745",
  "about": "“VOCs Profiling and Quality Assessment of Milk Employing Odorant-Binding Proteins-Based Fluorescence Biosensor” (International Journal of Molecular Sciences, 2026)",
  "key": {"[1]": {"test": "HS-SPME/GC-MS binding assay, PBS only (control)", "settings": "control without protein; 10 µM volatile, overnight, room temperature"}, "[2]": {"test": "Impinger VOC capture into water, quantified by competitive FRET with pOBP", "settings": "100 mL Milli-Q water, two hours, nitrogen flow"}},
  "data": [
    {"smiles": "CCC(C)=O", "note": "[2-butanone]", "values": [
      {"measurement": "%RPA, PBS 1X", "setting": "[1]", "result": "269.8 ± 1.6", "unit": "%RPA"}
    ]},
    {"smiles": "C=CC(O)CCCCC", "note": "(centres unmarked) [1-octen-3-ol]", "values": [
      {"measurement": "%RPA, PBS 1X", "setting": "[1]", "result": "228.4 ± 14.0", "unit": "%RPA"},
      {"measurement": "estimated concentration in the aqueous solution after bubbling", "setting": "[2]", "result": 1, "unit": "mM"}
    ]},
    {"smiles": "CCCCCO", "note": "[1-pentanol]", "values": [
      {"measurement": "%RPA, PBS 1X", "setting": "[1]", "result": "229.2 ± 7.0", "unit": "%RPA"},
      {"measurement": "estimated concentration in the aqueous solution after bubbling", "setting": "[2]", "result": 2, "unit": "mM"}
    ]}
  ]
}
